Experimental data published in US7259266B2, “Benzopyran compounds useful for treating inflammatory conditions” (Pharmacia Corporation, priority 2003, dated 2007).

Amino acid sequences for entries named in this document (tags omitted). Residues count along the entry.
UniProt P23219, 24-599 limits assumed: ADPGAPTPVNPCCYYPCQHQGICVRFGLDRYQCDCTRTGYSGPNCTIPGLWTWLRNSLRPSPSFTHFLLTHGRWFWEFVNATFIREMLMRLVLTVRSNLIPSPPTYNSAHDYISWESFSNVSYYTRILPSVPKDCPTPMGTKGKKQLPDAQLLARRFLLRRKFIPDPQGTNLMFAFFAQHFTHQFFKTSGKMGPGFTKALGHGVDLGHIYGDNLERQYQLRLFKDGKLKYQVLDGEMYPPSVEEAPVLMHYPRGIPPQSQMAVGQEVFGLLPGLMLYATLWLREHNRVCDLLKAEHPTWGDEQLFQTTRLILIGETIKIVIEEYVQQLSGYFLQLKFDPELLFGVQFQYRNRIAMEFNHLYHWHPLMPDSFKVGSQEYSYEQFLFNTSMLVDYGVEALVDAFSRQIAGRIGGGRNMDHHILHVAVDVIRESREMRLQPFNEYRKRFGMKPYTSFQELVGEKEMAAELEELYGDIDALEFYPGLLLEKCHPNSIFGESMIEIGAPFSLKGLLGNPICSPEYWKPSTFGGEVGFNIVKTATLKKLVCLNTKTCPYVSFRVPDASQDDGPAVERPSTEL

Target: COX-1 (Homo sapiens, UniProt P23219)
Assay: Assay for COX-1 activity (PGE2 formed, ELISA)
Details: read-out: hCox-1 IC50; recombinant hCox-1; compounds pre-incubated 10-20 minutes, reaction stopped after ten minutes; pH 8.0

- IC50: 61.4 µM and 41.1 µM
Structure (SMILES): O=C(O)C1=Cc2cc(-c3cccc([N+](=O)[O-])c3)ccc2OC1C(F)(F)F (stereo not shown)

“And” between values parts separate entries of the source, which are not always exact repeats. Equal entries are not always repeated. Structures were worked out from names or drawings and are uncertain.
